In turn, `Cc1ccc(C(=O)N[C@H]2CC[C@H](CCN3CCN(c4nccc5c4CCO5)CC3)CC2)cn1` [Example 116, trans-N-(4-{2-[4-(2,3-Dihydro-furo[3,2-c]pyridin-4-yl)-piperazin-1-yl]-ethyl}-cyclohexyl)-6-methyl-nicotinamide] gave a melting point of 201 °C.

A word on the melting point: it is the temperature of the solid-liquid transition.

The values are drawn from patent US8586579B2, “Anellated pyridine compounds” (Hoffmann-La Roche Inc., priority 2010, dated 2013).
